Source: article PMC10941682

The chains behind the UniProt entries cited, without tags or fusion partners.
UniProt Q8WV24: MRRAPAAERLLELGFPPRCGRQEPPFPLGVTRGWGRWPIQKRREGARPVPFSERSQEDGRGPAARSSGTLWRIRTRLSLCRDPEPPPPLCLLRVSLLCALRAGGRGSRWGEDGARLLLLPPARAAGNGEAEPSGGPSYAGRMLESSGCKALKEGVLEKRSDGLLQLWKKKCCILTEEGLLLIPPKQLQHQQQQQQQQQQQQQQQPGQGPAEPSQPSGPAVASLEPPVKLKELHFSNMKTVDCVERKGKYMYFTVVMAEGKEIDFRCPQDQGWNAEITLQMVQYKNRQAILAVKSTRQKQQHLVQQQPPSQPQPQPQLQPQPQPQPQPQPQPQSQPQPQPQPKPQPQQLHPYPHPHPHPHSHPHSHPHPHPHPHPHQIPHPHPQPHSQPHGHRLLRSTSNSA

Target: pleckstrin homology-like domain family A member 1 (human (endogenous in IMR-32)) (UniProt Q8WV24)
Assay: affinity purification with mass spectrometry; endogenous PHLDA1 precipitated with mouse anti-PHLDA1 (sc-23866) on Dynabeads Protein G from pre-cleared lysates of PBS- or ch14.18/CHO-treated IMR-32 cells (50 mM Tris-HCl pH 7.6, 150 mM NaCl, 0.5% NP-40), overnight at 4°C; isotype IgG2a control; on-bead trypsin digest, LC-MS, semi-quantitative sample/control ratio

binding: binds
B1: autism susceptibility gene 2 protein (protein, UniProt Q8WXX7 1-1259)
chain: MDGPTRGHGLRKKRRSRSQRDRERRSRGGLGAGAAGGGGAGRTRALSLASSSGSDKEDNGKPPSSAPSRPRPPRRKRRESTSAEEDIIDGFAMTSFVTFEALEKDVALKPQERVEKRQTPLTKKKREALTNGLSFHSKKSRLSHPHHYSSDRENDRNLCQHLGKRKKMPKALRQLKPGQNSCRDSDSESASGESKGFHRSSSRERLSDSSAPSSLGTGYFCDSDSDQEEKASDASSEKLFNTVIVNKDPELGVGTLPEHDSQDAGPIVPKISGLERSQEKSQDCCKEPIFEPVVLKDPCPQVAQPIPQPQTEPQLRAPSPDPDLVQRTEAPPQPPPLSTQPPQGPPEAQLQPAPQPQVQRPPRPQSPTQLLHQNLPPVQAHPSAQSLSQPLSAYNSSSLSLNSLSSSRSSTPAKTQPAPPHISHHPSASPFPLSLPNHSPLHSFTPTLQPPAHSHHPNMFAPPTALPPPPPLTSGSLQVAGHPAGSTYSEQDILRQELNTRFLASQSADRGASLGPPPYLRTEFHQHQHQHQHTHQHTHQHTFTPFPHAIPPTAIMPTPAPPMFDKYPTKVDPFYRHSLFHSYPPAVSGIPPMIPPTGPFGSLQGAFQPKTSNPIDVAARPGTVPHTLLQKDPRLTDPFRPMLRKPGKWCAMHVHIAWQIYHHQQKVKKQMQSDPHKLDFGLKPEFLSRPPGPSLFGAIHHPHDLARPSTLFSAAGAAHPTGTPFGPPPHHSNFLNPAAHLEPFNRPSTFTGLAAVGGNAFGGLGNPSVTPNSMFGHKDGPSVQNFSNPHEPWNRLHRTPPSFPTPPPWLKPGELERSASAAAHDRDRDVDKRDSSVSKDDKERESVEKRHSSHPSPAPVLPVNALGHTRSSTEQIRAHLNTEAREKDKPKERERDHSESRKDLAADEHKAKEGHLPEKDGHGHEGRAAGEEAKQLARVPSPYVRTPVVESARPNSTSSREAEPRKGEPAYENPKKSSEVKVKEERKEDHDLPPEAPQTHRASEPPPPNSSSSVHPGPLASMPMTVGVTGIHPMNSISSLDRTRMMTPFMGISPLPGGERFPYPSFHWDPIRDPLRDPYRELDIHRRDPLGRDFLLRNDPLHRLSTPRLYEADRSFRDREPHDYSHHHHHHHHPLSVDPRREHERGGHLDERERLHMLREDYEHTRLHSVHPASLDGHLPHPSLITPGLPSMHYPRISPTAGNQNGLLNKTPPTAALSAPPPLISTLGGRPVSPRRTTPLSAEIRERPPSHTLKDIEAR

binding: binds
B2: DDB1- and CUL4-associated factor 7 (protein, UniProt P61962 1-342)
chain: MSLHGKRKEIYKYEAPWTVYAMNWSVRPDKRFRLALGSFVEEYNNKVQLVGLDEESSEFICRNTFDHPYPTTKLMWIPDTKGVYPDLLATSGDYLRVWRVGETETRLECLLNNNKNSDFCAPLTSFDWNEVDPYLLGTSSIDTTCTIWGLETGQVLGRVNLVSGHVKTQLIAHDKEVYDIAFSRAGGGRDMFASVGADGSVRMFDLRHLEHSTIIYEDPQHHPLLRLCWNKQDPNYLATMAMDGMEVVILDVRVPCTPVARLNNHRACVNGIAWAPHSSCHICTAADDHQALIWDIQQMPRAIEDPILAYTAEGEINNVQWASTQPDWIAICYNNCLEILRV

These are yes or no findings as the source states them, for the method shown. In cells and extracts the contact can be indirect. Here binding means that the protein was enriched with, or labelled near, the bait; the list need not be complete. One block for each binder: values may come before it.
